# Results from PubChem BioAssay AID1259354 (Paczesny and Yang Labs, IUPUI and University of Michigan, 2018).
# Sequences of proteins named here, by UniProt entry; tags and fusion partners are left off. A change or cut given only in a name is not applied to a line headed by its entry.
# UniProt Q01638: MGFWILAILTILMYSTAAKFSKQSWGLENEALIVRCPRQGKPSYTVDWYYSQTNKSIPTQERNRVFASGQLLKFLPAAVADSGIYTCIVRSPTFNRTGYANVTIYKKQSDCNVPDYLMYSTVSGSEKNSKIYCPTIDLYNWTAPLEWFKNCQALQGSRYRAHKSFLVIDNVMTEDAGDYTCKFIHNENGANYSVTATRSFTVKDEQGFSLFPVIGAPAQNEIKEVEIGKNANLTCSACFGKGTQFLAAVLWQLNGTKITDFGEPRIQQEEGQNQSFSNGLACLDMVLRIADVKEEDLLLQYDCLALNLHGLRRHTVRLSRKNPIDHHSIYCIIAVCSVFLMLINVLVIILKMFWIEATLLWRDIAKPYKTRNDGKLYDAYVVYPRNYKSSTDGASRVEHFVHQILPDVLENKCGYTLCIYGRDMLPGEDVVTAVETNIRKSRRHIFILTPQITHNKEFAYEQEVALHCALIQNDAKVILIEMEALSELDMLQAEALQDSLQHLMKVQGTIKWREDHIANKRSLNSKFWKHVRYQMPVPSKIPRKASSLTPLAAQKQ
# Among all 78,000 compounds or so, about 1,800 (2.3%) were called active. The inconclusive results got no clear call from the source; some entries with a clear call stand among them for comparison. Rule as the data show it: active = inhibition above about 30%; inconclusive = mostly about 10% to 28%; inactive = weaker than that.
# Target: Interleukin-1 receptor-like 1 (Homo sapiens) (UniProt Q01638)
# Test: blocks human ST2 binding to IL-33, primary screen, biochemical, AlphaLISA (AID 1259354)
# Settings: AlphaLISA ST2-Fc/biotin-IL-33 interaction, 1 h; at 17 µM, active compounds read high
row,SMILES,inhibition
1,CCc1csc(CNC(=O)c2ncc[nH]2)n1,inconclusive: 13%
2,CC(C)/C=C/C(=O)N1CCCC(N2CCN(c3cccc(C(F)(F)F)c3)CC2)C1 (stereo unspecified),inactive
3,C/C=C(\C)C(=O)OC1CCC(=O)OC1/C=C/C(O)C(C)O (stereo unspecified),inconclusive: 13%
4,CCC(=O)N1CCc2cc(Br)cc(S(=O)(=O)N(CC)CC)c21,inactive
5,Cn1c(=O)[nH]c(=O)c2c1nc(Br)n2CC(=O)c1ccccc1,inactive
6,CC(C)CCNC(=O)Cc1c(C(=O)O)[nH]c2ccc(Cl)cc12,inconclusive: 16%
7,Cn1c(=O)c2c(SCc3cccc(F)c3)nc(-c3cccs3)nc2n(C)c1=O,inactive
8,O=C(COc1ccccc1Cl)c1ccc(F)cc1,inactive
9,COc1ccc(C=Cc2ccccn2)cc1,inconclusive: 21%
10,O=C(NCC1CCCO1)c1c[nH]c2ccc(S(=O)(=O)Nc3ccccc3F)cc2c1=O (stereo unspecified),inactive
11,COC(=O)c1ccc(C(=O)Nc2nc3c(s2)CCc2ccccc2-3)cc1,inconclusive: 12%
12,CC(C)NC[C@H]1O[C@@H](CO)[C@@H](O)[C@H]1N1CCc2ccccc2C1,inconclusive: 10%
13,CCOc1ccc(C(=O)Nc2ccc(Nc3nc(C)cc(Nc4ccccc4)n3)cc2)cc1,inconclusive: 17%
14,COc1ccc(-c2cc(C[C@H]3CNCC[C@H]3CC(=O)N3CCN(Cc4ccccc4)CC3)no2)cc1,inconclusive: 14%
15,Cc1nnc(NC(=O)CSc2cn(C)c3ccccc23)s1,inconclusive: 11%
16,COc1ccc([N+](=O)[O-])cc1NC(=O)c1cc2cc3ccc(C)cc3nc2s1,active: 46%
17,CCc1nc(-c2nccn2CC2CC(=O)N(CC)C2)c(C)[nH]1 (stereo unspecified),inactive
18,O=C(Nc1ccc(=O)n2c1[C@@H]1C[C@@H](CN(C(=O)Nc3ccc(F)cc3)C1)C2)c1ccccc1,inactive
19,COc1cc2c(cc1NC(=O)COc1ccc(C)cc1)oc1ccccc12,inconclusive: 18%
20,CCn1c(C)cc(C)c(C(=O)Nc2ccc(NC(=O)CC(C)C)c(OC)c2)c1=O,inactive
21,C[C@H]1[C@@H]2[C@@H](O)C([C@H](C)C(=O)N(C)Cc3cccnc3)CC[C@@]2(C)CC[C@@H]1NC(=O)C1CCCCC1 (stereo partly specified),inconclusive: 10%
22,COc1ccc(C2CC(c3ccco3)=Nc3ccccc3S2)cc1OC (stereo unspecified),inconclusive: 18%
23,COc1ccc(Cc2n[nH]c(=O)c3ccccc23)cc1OC,inactive

# Exported with bars between the fields: two of the compounds above
row | SMILES | inhibition
15 | Cc1nnc(NC(=O)CSc2cn(C)c3ccccc23)s1 | inconclusive: 11%
16 | COc1ccc([N+](=O)[O-])cc1NC(=O)c1cc2cc3ccc(C)cc3nc2s1 | active: 46%

# Later entries:

row,SMILES,inhibition
1,Cc1ccc2nc(COCC(=O)N3CCC(N4CCCC4=O)CC3)[nH]c2c1,inconclusive: 12%
2,Cc1ccc(S(=O)(=O)NC(CC(=O)O)c2ccccc2)cc1 (stereo unspecified),inconclusive: 15%
3,O=C(CSc1nc2c([nH]c3ccccc32)c(=O)n1-c1ccc(F)cc1)Nc1nccs1,inconclusive: 22%
4,O=C1Nc2ccccc2C1=Nc1cccc(S(=O)(=O)Nc2ccccc2)c1,inactive
5,CCCCNC(=O)CN1C(=O)/C(=C\c2cccc(Cl)c2)Sc2ccccc21,inactive
6,CC(C)c1nc(C(=O)N2CCC(n3nccc3NC(=O)C3CCCC3)CC2)cs1,inconclusive: 19%
7,CCC(=O)N1c2ccccc2-c2nnc(SC)nc2OC1c1cccc(C)n1 (stereo unspecified),inconclusive: 23%
8,CN(C)Cc1ccccc1-c1ccc2n(c1=O)C[C@H]1C[C@@H]2CN(C(=O)NC2CCCCC2)C1,inactive
9,COc1cc(C2CC(=O)C3=C(C2)Nc2ccccc2NC3c2ccc(C)s2)cc(OC)c1OC (stereo unspecified),inconclusive: 19%
10,O=C(c1[nH]ncc1Cl)N1CCCC(c2n[nH]c(=O)n2-c2ccccc2)C1 (stereo unspecified),inconclusive: 13%
11,COc1ccc(-c2csc(/C(C#N)=C/c3cccc(F)c3)n2)cc1,active: 43%
12,CCOc1ccccc1NC(=O)c1sc2nc(C)nc(N3CCOCC3)c2c1C,inconclusive: 15%
13,CCN1CCN(C(=O)c2ccc3c(c2)NC(=O)C(N2CCCC2)S3)CC1 (stereo unspecified),inactive
14,COc1ccc(N2CCN(C(=O)c3ccc(C#Cc4ccccc4)cc3)CC2)cc1,inconclusive: 10%
15,COc1ccccc1C(CC(=O)O)c1ccc2c(c1)OCO2 (stereo unspecified),inactive
16,CCN1CCN(C(=O)c2cc3c(=O)oc4ccccc4c3s2)CC1,inconclusive: 10%
17,COc1ccc2[nH]c(C(=O)O)c(CCNC(C)=O)c2c1,inconclusive: 11%
18,Cn1c(C(=O)NCc2ccc3c(c2)OCO3)cc2c(=O)n3ccccc3nc21,inconclusive: 10%
19,COc1ccc(NC(NC(=O)c2cccnc2)C(Cl)(Cl)Cl)cc1 (stereo unspecified),inconclusive: 16%
20,CSCCC(Nc1ncnc2ccccc12)C(=O)O (stereo unspecified),inconclusive: 13%
21,CCOc1ccc(C2C(N3C(=O)c4ccccc4C3=O)C(=O)N2c2ccc(Cl)cc2)cc1 (stereo unspecified),inconclusive: 22%
22,COc1ccc(-c2noc([C@@H]3C[C@H](NC(=O)Nc4ccccc4)CN3C)n2)cc1,inconclusive: 21%
23,CC1(C)C(C=C(Cl)Cl)C1C(=O)Nc1cccc([N+](=O)[O-])c1 (stereo unspecified),inconclusive: 11%
